Experimental data taken from patent US9585905B2, “Sweet taste receptor antagonist compositions” (Four LLC, priority 2014, dated 2017).

Tested on: sweet taste (10% sucrose reference)
Assay: Duration of sweet taste blockade: sensory panelist rates sweetness intensity (SI) of 10% sucrose after 5 min oral exposure to sample
Format: in vivo, human
Experimental: A standard method was developed to quantify the duration of sweet taste blockade for the gymnemic acid compositions of the present invention. […] In all cases, sucrose was used as the sweetener in sweet taste blockade quantification. Thus, 10%, 8%, 6%, 4%, and 2% (w/v) sucrose solutions in reverse osmosis (RO) purified water were freshly prepared and, at the beginning of each experiment, 15 mL samples of each sucrose solution were used to calibrate sensory panelist on sweetness intensity. The sensory panelist is described as a person with training in sensory evaluation with at least 1 year of experience as a sensory panelist in the area of gustatation, and preferably with training in descriptive analysis. Standard scaling methodology was used for quantification of sweetness intensity (SI) on the following scale: • 10% sucrose=10, • 8% sucrose=8, • 6% sucrose=6, • 4% sucrose=4, • 2% sucrose=2, and • 0% sucrose=0.
Following panelist calibration with the sucrose reference standards, the panelist rinsed their mouth with 15 mL RO water and the sweetness inhibitor sample in 15 mL RO water was then immediately taken into the mouth and gently agitated for 5 minutes. The sweet taste inhibitor sample was then expectorated and a 15 mL sample of the 10% sucrose reference solution was then immediately re-tasted, perceived SI within 15 seconds was rated on the 0-10 scale, the sample expectorated, and the mouth rinsed vigorously with 15 mL RO water. The 10% sucrose sample was then re-tasted every 15 min and SI rated. The panelist was asked to make comments on the observations of non-sweet taste attributes at each sucrose reference tasting interval.

Measured: Comments & Observations

B1: Miraculin (protein, UniProt P13087 30-220, looked up)
Miraculin: DSAPNPVLDIDGEKLRTGTNYYIVPVLRDHGGGLTVSATTPNGTFVCPPRVVQTRKEVDHDRPLAFFPENPKEDVVRVSTDLNINFSAFMPCRWTSSTVWRLDKYDESTGQYFVTIGGVKGNPGPETISSWFKIEEFCGSGFYKLVFCPTVCGSCKVKCGDVGIYIDQKGRRRLALSDKPFAFEFNKTVYF
Strong sweetness and no other taste.: panelist comments at 0 min tasting of 10% sucrose | panelist comments at 15 min tasting of 10% sucrose | panelist comments at 30 min tasting of 10% sucrose | panelist comments at 45 min tasting of 10% sucrose | panelist comments at 60 min tasting of 10% sucrose | panelist comments at 75 min tasting of 10% sucrose | panelist comments at 90 min tasting of 10% sucrose | panelist comments at 105 min tasting of 10% sucrose | panelist comments at 120 min tasting of 10% sucrose
